The other results are listed elsewhere or left out.
Legend:
Assay in all cases: log2 fold change, soluble protein after heating vs DMSO (PISA); higher = thermal stabilisation; K562 lysate, 10 uM; active = over 0.2 and 3.5 SD of the protein, either way, in both replicates (recomputed)
ibrutinib = compound: C=CC(=O)N1CCC[C@@H](n2nc(-c3ccc(Oc4ccccc4)cc3)c3c(N)ncnc32)C1 [ibrutinib]
In short: (§1)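 To prepare the extract, K562 pellets were dounce-homogenised in PBS pH 7.4 with 1 mM MgCl2, giving crude material at 1 mg/mL protein. This was treated with 10 μM compound for 30 min, then heated in aliquots for 3 min over 48°C-58°C before pooling and addition of NP-40 to 0.5% at 4°C. Centrifugation at 21,000xg for 90 min left soluble protein in the supernatant, which TMTpro 16plex LC-MS/MS quantified with equalised channel sums. Results are log-two fold changes in thermal stability compared with solvent controls, from duplicates.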

Chains of the proteins cited; added tags and fusions are not shown. Lines headed by an entry give the natural chain unless they say otherwise; changes in a name come on top.
UniProt P52739: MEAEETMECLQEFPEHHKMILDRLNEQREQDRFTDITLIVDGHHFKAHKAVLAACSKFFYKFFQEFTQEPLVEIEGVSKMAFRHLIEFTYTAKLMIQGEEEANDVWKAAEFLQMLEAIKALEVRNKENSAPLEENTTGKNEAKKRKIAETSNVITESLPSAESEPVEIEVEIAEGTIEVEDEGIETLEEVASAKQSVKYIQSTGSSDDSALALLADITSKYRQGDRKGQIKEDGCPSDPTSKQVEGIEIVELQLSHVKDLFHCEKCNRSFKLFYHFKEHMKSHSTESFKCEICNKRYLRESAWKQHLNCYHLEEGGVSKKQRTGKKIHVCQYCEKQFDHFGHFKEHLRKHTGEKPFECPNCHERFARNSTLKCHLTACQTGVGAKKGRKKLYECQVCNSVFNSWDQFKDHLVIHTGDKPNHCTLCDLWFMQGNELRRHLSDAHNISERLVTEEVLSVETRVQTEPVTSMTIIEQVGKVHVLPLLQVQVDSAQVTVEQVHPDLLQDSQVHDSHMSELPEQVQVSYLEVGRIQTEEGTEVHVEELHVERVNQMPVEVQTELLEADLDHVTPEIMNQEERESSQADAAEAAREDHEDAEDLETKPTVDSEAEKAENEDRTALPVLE
UniProt Q5SVZ6: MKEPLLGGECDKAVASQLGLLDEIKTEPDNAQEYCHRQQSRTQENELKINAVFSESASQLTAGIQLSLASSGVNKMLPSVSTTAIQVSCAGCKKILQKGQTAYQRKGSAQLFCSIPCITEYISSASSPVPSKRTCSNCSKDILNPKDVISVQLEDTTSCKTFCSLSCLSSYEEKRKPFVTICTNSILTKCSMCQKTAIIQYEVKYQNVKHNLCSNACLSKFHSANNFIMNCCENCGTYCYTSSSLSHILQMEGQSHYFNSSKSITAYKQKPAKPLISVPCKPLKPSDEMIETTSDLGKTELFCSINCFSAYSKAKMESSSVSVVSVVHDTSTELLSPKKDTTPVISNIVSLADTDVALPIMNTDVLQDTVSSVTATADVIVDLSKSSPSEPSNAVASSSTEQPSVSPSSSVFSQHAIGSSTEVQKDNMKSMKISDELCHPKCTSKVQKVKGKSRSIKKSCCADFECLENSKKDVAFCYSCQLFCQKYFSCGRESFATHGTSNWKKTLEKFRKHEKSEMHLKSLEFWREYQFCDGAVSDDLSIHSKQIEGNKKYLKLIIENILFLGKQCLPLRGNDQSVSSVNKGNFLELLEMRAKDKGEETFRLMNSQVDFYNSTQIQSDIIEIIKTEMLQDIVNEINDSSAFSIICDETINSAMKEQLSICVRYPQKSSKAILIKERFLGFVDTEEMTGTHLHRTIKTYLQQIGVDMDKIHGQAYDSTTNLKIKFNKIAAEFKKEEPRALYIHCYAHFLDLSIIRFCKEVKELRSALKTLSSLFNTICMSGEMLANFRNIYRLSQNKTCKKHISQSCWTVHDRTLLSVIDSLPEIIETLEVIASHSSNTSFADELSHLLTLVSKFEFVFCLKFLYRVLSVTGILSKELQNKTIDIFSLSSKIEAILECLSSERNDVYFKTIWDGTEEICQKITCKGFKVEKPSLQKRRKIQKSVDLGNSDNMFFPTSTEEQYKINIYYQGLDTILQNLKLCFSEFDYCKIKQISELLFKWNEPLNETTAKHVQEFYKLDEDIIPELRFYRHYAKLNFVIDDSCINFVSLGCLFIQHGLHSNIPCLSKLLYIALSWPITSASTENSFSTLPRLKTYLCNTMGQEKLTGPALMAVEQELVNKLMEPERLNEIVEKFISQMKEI
UniProt Q9H900: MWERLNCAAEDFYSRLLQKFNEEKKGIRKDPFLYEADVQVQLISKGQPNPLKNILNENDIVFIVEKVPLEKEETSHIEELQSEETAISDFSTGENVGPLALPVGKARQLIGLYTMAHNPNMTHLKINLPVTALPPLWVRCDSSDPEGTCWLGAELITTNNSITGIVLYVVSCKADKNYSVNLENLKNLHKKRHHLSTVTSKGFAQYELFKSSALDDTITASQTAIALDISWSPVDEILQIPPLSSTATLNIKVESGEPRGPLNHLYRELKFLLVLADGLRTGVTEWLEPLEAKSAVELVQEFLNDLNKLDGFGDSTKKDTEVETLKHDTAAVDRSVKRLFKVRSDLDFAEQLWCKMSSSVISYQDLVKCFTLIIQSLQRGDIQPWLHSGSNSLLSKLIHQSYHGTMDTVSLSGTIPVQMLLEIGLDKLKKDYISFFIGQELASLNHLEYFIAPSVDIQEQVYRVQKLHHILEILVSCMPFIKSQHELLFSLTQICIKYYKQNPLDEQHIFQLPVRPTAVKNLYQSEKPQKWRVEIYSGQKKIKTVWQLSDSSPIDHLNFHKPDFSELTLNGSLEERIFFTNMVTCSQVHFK
UniProt O95229: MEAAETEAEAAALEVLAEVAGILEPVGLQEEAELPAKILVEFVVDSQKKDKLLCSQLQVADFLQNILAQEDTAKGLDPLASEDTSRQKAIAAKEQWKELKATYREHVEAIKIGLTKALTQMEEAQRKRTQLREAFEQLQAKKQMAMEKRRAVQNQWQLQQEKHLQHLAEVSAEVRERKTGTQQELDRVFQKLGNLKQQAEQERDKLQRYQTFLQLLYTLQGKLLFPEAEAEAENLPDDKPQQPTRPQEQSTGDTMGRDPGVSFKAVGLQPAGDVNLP
UniProt Q8NB15: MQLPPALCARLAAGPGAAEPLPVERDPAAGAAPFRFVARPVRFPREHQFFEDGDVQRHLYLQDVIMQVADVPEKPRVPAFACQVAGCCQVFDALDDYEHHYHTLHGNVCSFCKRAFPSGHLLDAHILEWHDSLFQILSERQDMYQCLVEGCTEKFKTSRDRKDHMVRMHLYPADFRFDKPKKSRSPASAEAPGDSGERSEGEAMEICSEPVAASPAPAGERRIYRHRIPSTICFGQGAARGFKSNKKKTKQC
UniProt O95218: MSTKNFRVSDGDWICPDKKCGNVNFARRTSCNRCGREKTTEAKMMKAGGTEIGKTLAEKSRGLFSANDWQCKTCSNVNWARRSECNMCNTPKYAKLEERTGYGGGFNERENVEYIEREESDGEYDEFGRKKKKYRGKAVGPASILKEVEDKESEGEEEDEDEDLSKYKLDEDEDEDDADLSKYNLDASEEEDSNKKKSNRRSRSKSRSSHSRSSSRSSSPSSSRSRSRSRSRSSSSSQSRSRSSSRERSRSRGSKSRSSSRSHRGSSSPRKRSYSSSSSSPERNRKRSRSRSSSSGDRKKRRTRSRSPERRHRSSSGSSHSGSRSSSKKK
UniProt O43264: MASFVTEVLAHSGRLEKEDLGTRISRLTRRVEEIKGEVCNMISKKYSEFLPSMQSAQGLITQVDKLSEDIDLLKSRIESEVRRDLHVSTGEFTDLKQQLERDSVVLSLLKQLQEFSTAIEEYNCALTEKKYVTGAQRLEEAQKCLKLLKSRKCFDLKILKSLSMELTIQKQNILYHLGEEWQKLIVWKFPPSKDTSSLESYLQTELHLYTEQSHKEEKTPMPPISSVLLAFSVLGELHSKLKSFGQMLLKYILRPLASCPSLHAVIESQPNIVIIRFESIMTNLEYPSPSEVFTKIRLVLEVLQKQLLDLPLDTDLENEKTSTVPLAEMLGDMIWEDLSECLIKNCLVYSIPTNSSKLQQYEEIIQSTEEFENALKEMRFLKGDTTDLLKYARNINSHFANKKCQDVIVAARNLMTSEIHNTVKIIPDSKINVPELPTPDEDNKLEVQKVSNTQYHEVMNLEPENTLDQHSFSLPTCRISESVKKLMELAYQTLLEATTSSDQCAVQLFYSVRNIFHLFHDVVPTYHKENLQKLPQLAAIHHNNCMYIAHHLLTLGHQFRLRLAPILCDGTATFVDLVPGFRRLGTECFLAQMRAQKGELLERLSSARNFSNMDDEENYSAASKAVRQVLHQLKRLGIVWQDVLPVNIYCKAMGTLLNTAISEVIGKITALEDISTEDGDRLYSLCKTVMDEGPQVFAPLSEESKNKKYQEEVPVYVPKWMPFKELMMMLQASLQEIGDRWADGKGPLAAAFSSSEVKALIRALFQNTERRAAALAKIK
UniProt P17029: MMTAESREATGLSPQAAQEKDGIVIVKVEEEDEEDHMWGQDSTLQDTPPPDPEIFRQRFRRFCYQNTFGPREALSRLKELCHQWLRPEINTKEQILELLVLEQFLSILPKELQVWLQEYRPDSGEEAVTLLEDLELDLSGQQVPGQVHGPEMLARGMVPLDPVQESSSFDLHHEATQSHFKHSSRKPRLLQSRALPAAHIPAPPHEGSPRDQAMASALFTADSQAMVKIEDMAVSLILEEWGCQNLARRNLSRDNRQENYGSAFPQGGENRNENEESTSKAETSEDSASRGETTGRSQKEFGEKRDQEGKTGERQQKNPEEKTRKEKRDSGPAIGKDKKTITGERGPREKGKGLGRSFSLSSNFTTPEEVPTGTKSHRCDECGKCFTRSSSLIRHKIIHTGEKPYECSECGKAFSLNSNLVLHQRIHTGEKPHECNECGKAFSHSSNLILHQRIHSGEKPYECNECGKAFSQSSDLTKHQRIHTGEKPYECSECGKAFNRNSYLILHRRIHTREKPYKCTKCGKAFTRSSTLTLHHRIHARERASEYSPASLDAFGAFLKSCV
UniProt Q8NAF0: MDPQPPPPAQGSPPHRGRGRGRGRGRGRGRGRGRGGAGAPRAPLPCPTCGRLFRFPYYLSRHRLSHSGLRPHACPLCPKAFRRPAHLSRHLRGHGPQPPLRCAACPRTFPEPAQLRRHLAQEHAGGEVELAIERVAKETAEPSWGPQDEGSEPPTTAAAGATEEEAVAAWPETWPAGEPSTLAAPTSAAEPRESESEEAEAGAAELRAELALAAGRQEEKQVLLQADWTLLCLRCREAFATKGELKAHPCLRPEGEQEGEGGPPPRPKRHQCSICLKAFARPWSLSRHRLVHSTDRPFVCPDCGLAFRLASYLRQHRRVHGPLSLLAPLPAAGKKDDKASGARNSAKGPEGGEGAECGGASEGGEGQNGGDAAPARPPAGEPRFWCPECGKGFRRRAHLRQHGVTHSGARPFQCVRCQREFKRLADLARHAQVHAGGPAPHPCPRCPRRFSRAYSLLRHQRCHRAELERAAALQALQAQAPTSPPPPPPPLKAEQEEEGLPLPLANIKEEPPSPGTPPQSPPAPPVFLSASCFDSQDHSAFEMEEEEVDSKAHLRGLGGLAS
UniProt Q6DD87: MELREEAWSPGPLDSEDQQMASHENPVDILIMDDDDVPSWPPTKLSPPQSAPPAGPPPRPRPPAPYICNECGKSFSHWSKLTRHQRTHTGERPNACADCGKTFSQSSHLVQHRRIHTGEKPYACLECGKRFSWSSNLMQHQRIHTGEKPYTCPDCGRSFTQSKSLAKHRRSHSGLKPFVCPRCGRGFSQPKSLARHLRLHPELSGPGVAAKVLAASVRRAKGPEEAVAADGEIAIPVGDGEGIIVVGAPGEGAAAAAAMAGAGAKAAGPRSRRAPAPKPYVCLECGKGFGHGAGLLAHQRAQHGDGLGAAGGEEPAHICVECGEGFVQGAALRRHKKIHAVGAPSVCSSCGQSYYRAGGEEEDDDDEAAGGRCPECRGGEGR
UniProt Q499Z4: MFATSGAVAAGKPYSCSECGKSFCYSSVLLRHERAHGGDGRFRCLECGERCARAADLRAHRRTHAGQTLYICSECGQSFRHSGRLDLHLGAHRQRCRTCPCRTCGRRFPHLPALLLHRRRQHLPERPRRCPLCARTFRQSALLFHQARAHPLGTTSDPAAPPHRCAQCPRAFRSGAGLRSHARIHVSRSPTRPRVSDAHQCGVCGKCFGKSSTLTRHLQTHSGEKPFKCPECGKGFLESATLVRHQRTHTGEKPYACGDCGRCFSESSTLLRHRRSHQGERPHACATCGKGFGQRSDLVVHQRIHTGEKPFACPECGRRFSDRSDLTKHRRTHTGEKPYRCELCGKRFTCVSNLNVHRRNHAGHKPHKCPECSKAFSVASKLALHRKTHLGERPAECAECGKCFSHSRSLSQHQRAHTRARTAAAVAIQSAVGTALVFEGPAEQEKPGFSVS
UniProt Q969S3: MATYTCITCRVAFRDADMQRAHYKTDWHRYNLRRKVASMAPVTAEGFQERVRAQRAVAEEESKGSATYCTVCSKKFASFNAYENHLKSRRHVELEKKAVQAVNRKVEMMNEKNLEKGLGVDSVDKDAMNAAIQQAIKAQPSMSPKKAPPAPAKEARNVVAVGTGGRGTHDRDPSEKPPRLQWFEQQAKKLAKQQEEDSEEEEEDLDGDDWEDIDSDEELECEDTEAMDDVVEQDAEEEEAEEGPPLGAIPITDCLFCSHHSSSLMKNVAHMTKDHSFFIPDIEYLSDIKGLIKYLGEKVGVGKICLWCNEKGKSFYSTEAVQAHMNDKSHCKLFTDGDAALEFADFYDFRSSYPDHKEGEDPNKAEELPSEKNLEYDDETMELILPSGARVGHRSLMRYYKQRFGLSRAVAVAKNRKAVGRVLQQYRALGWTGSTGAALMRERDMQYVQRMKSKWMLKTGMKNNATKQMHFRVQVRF

[1] = compound: CC(=O)c1cnc2ccc(-c3cc(Cl)c(O)c(Cl)c3)nc2c1N[C@H]1CC[C@H](CN(C)C)CC1
In short: as §1

ralimetinib = compound: CC(C)(C)Cn1c(N)nc2ccc(-c3[nH]c(C(C)(C)C)nc3-c3ccc(F)cc3)nc21 [ralimetinib]
In short: as §1

[2] = compound: CC(C)(O)CC(=O)NCCn1ccc2ncnc(Nc3ccc(Oc4cccc(C(F)(F)F)c4)c(Cl)c3)c21
In short: as §1

[3] = compound: CC(C)C1=C2N=C(C=C(N2N=C1)NCC3=CC=CC=C3)NCCCCCCN
In short: as §1

[4] = compound: CC1=C(C(CC(=O)N1)C2=CC=C(C=C2)C(F)(F)F)C(=O)NC3=C(C=C4C(=C3)C=NN4)F
In short: as §1

[5] = compound: CC1=C(C2=C(C=C1)C(=O)C3=CC=CC=C3N2CCCN)C
In short: as §1

[6] = compound: CC1=C(C=C(C=C1)NC(=O)C2=CC(=CC=C2)C(C)(C)C#N)NC3=CC4=C(C=C3)N=CN(C4=O)C
In short: as §1

[7] = compound: CC1=C(C=C(C=C1)NC(=O)C2=CC(=CC=C2)N(C)C)NC(=O)C3=CC=C(C=C3)O
In short: as §1

[8] = compound: CC1=CC=C(C=C1)SC2=C3C=C(SC3=CN=C2)C(=O)N
In short: as §1

vemurafenib = compound: CCCS(=O)(=O)Nc1ccc(F)c(C(=O)c2c[nH]c3ncc(-c4ccc(Cl)cc4)cc23)c1F [vemurafenib]
In short: as §1

[9] = compound: CCCS(=O)(=O)Nc1ccc(F)c(C(=O)c2c[nH]c3ncc(Cl)cc23)c1F
In short: as §1

barasertib = compound: CCN(CCCOc1ccc2c(Nc3cc(CC(=O)Nc4cccc(F)c4)[nH]n3)ncnc2c1)CCOP(=O)(O)O [barasertib]
In short: as §1

[10] = compound: CC[C@@H]1C(=O)N(C)c2cnc(Nc3ccc(C(=O)NC4CCN(C)CC4)cc3OC)nc2N1C1CCCC1
In short: as §1

volasertib = compound: CC[C@@H]1C(=O)N(C)c2cnc(Nc3ccc(C(=O)N[C@H]4CC[C@H](N5CCN(CC6CC6)CC5)CC4)cc3OC)nc2N1C(C)C [volasertib]
In short: as §1

[11] = compound: CCn1c(C(=O)N(C2CC2)C2CC2)cc2c3c(ncn3C)c(Nc3cc(C)n(C)n3)nc21
In short: as §1

[12] = compound: CCn1cc(-c2ccnc3[nH]c(-c4cccc(CN(C)C)c4)cc23)c(-c2ccc(NC(=O)N(C)C)cc2)n1
In short: as §1

[13] = compound: CN1CCC(CNc2ccc3ncc(-c4cccc(OC(F)(F)F)c4)n3n2)CC1
In short: as §1

saracatinib = compound: CN1CCN(CCOc2cc(OC3CCOCC3)c3c(Nc4c(Cl)ccc5c4OCO5)ncnc3c2)CC1 [saracatinib]
In short: as §1

sotrastaurin = compound: CN1CCN(c2nc(C3=C(c4c[nH]c5ccccc45)C(=O)NC3=O)c3ccccc3n2)CC1 [sotrastaurin]
In short: as §1

Measured: log2 fold change

ZNF131 (UniProt P52739)
inactive: ibrutinib -0.053 | [1] 0.026 | ralimetinib 0.023 | [2] -0.019 | [3] 0.023 | [4] 0.024 | [5] 0 | [6] 0.024 | [7] -0.015 | [8] -0.007 | vemurafenib -0.037 | [9] -0.014 | barasertib -0.047 | [10] 0.015 | volasertib -0.113 | [11] -0.034 | [12] -0.044 | [13] 0.054 | saracatinib 0.02 | sotrastaurin 0.03

ZMYM1 (UniProt Q5SVZ6)
active: [12] -0.272
inactive: ibrutinib -0.04 | [1] 0.012 | ralimetinib 0.02 | [2] 0.016 | [3] -0.022 | [4] -0.049 | [5] -0.008 | [6] 0.001 | [7] -0.007 | [8] -0.011 | vemurafenib 0.011 | [9] -0.017 | barasertib 0.05 | [10] -0.033 | volasertib -0.124 | [11] 0.017 | [13] 0.127 | saracatinib 0.013 | sotrastaurin 0.05

ZNF277 (UniProt Q9NRM2)
inactive: ibrutinib -0.009 | [1] 0.004 | ralimetinib 0.061 | [2] -0.005 | [3] -0.034 | [4] -0.069 | [5] -0.027 | [6] -0.01 | [7] -0.016 | [8] 0.015 | vemurafenib -0.014 | [9] -0.041 | barasertib 0.064 | [10] -0.136 | volasertib -0.02 | [11] -0.007 | [12] 0.007 | [13] 0.05 | saracatinib 0.029 | sotrastaurin 0.003

ZWILCH (UniProt Q9H900)
inactive: ibrutinib 0.02 | [1] 0.016 | ralimetinib -0.021 | [2] -0.043 | [3] -0.031 | [4] 0.038 | [5] -0.004 | [6] -0.008 | [7] 0.027 | [8] 0.003 | vemurafenib -0.011 | [9] -0.005 | barasertib -0.029 | [10] -0.031 | volasertib -0.044 | [11] 0.049 | [12] -0.063 | [13] -0.007 | saracatinib 0.01 | sotrastaurin 0.039

ZWINT (UniProt O95229)
inactive: ibrutinib 0.03 | [1] 0.007 | ralimetinib -0.002 | [2] -0.039 | [3] 0.032 | [4] -0.027 | [5] -0.002 | [6] -0.013 | [7] -0.026 | [8] -0.044 | vemurafenib 0.013 | [9] 0.032 | barasertib 0.024 | [10] 0.041 | volasertib -0.012 | [11] -0.018 | [12] -0.005 | [13] 0.048 | saracatinib 0.013 | sotrastaurin 0.028

ZNF511 (UniProt Q8NB15)
inactive: ibrutinib 0.023 | [1] -0.03 | ralimetinib 0.029 | [2] -0.074 | [3] -0.039 | [4] 0.045 | [5] -0.076 | [6] -0.026 | [7] -0.007 | [8] 0.126 | vemurafenib -0.059 | [9] -0.235 | barasertib 0.012 | [10] 0.04 | volasertib 0.052 | [11] 0.056 | [12] -0.58 | [13] 0.059 | saracatinib 0.024 | sotrastaurin -0.068

ZRANB2 (UniProt O95218)
inactive: ibrutinib -0.027 | [1] -0.012 | ralimetinib -0.04 | [2] -0.034 | [3] -0.024 | [4] -0.032 | [5] 0.023 | [6] 0.063 | [7] 0.013 | [8] -0.01 | vemurafenib 0.002 | [9] -0.003 | barasertib -0.003 | [10] 0.02 | volasertib 0.022 | [11] -0.005 | [12] 0.056 | [13] -0.008 | saracatinib 0.017 | sotrastaurin -0.091

ZW10 (UniProt O43264)
inactive: ibrutinib 0.017 | [1] -0.01 | ralimetinib -0.009 | [2] -0.033 | [3] -0.021 | [4] -0.009 | [5] 0 | [6] -0.006 | [7] 0.044 | [8] 0.004 | vemurafenib 0.027 | [9] 0.017 | barasertib 0.029 | [10] -0.019 | volasertib -0.06 | [11] 0.031 | [12] -0.04 | [13] -0.078 | saracatinib 0.034 | sotrastaurin 0.021

ZNRD2 (UniProt G3V1B8)
inactive: ibrutinib 0.021 | [1] -0.115 | ralimetinib -0.014 | [2] -0.133 | [3] -0.094 | [4] -0.089 | [5] -0.071 | [6] 0.132 | [7] 0.013 | [8] -0.057 | vemurafenib -0.095 | [9] 0.048 | barasertib 0.069 | [10] -0.115 | volasertib 0.137 | [11] -0.056 | [12] -0.25 | [13] -0.012 | saracatinib 0.059 | sotrastaurin -0.051

ZKSCAN1 (UniProt P17029)
inactive: ibrutinib 0.043 | [1] -0.045 | ralimetinib -0.046 | [2] 0.012 | [3] 0.018 | [4] 0.082 | [5] 0.012 | [6] 0.036 | [7] 0.048 | [8] -0.007 | vemurafenib 0.002 | [9] 0.028 | barasertib 0.039 | [10] 0.055 | volasertib -0.041 | [11] 0.019 | [12] 0.019 | [13] -0.077 | saracatinib -0.017 | sotrastaurin -0.099

ZNF579 (UniProt Q8NAF0)
inactive: ibrutinib 0.084 | [1] -0.015 | ralimetinib 0.045 | [2] -0.057 | [3] -0.01 | [4] 0.002 | [5] -0.06 | [6] 0.01 | [7] -0.049 | [8] -0.007 | vemurafenib 0.021 | [9] 0.115 | barasertib -0.03 | [10] 0.042 | volasertib -0.027 | [11] 0.011 | [12] 0.037 | [13] -0.041 | saracatinib 0.081 | sotrastaurin -0.048

ZNRD2 (UniProt O60232)
inactive: ibrutinib 0.048 | [1] -0.005 | ralimetinib 0.017 | [2] 0.034 | [3] 0.003 | [4] 0.011 | [5] 0.047 | [6] 0.021 | [7] -0.018 | [8] 0.068 | vemurafenib -0.039 | [9] -0.015 | barasertib 0.058 | [10] -0.055 | volasertib 0.077 | [11] 0.051 | [12] -0.081 | [13] -0.014 | saracatinib 0.027 | sotrastaurin -0.024

ZNF787 (UniProt Q6DD87)
inactive: ibrutinib 0.029 | [1] 0.081 | ralimetinib 0 | [2] -0.002 | [3] -0.086 | [4] -0.165 | [5] -0.022 | [6] -0.007 | [7] 0.042 | [8] -0.015 | vemurafenib 0.266 | [9] 0.084 | barasertib -0.156 | [10] -0.063 | volasertib -0.018 | [11] -0.04 | [12] -0.02 | [13] 0.044 | saracatinib 0.073 | sotrastaurin -0.107

ZNF672 (UniProt Q499Z4)
inactive: ibrutinib -0.068 | [1] -0.022 | ralimetinib -0.016 | [2] 0.043 | [3] 0.112 | [4] -0.005 | [5] -0.131 | [6] -0.042 | [7] -0.036 | [8] 0.014 | vemurafenib 0.139 | [9] 0.05 | barasertib 0.004 | [10] 0.056 | volasertib 0.003 | [11] -0.006 | [12] 0.012 | [13] -0.248 | saracatinib 0.096 | sotrastaurin 0.024

ZNF638 (UniProt Q14966)
inactive: ibrutinib 0.019 | [1] 0.015 | ralimetinib 0.027 | [2] 0.018 | [3] 0.079 | [4] 0.023 | [5] -0.023 | [6] -0.036 | [7] 0.017 | [8] 0.006 | vemurafenib -0.006 | [9] 0.011 | barasertib -0.032 | [10] 0.015 | volasertib 0.011 | [11] -0.055 | [12] 0.031 | [13] -0.036 | saracatinib 0.032 | sotrastaurin 0.004

ZNF622 (UniProt Q969S3)
inactive: ibrutinib 0.023 | [1] 0.007 | ralimetinib 0 | [2] -0.006 | [3] -0.038 | [4] -0.052 | [5] -0.003 | [6] 0.003 | [7] -0.008 | [8] 0.008 | vemurafenib 0.018 | [9] 0.01 | barasertib 0.026 | [10] 0.028 | volasertib -0.031 | [11] -0.003 | [12] -0.102 | [13] 0.003 | saracatinib 0.008 | sotrastaurin -0.02

Two successive entries already listed, quoted:
ZRANB2 (UniProt O95218)
inactive: ibrutinib -0.027 | [1] -0.012 | ralimetinib -0.04 | [2] -0.034 | [3] -0.024 | [4] -0.032 | [5] 0.023 | [6] 0.063 | [7] 0.013 | [8] -0.01 | vemurafenib 0.002 | [9] -0.003 | barasertib -0.003 | [10] 0.02 | volasertib 0.022 | [11] -0.005 | [12] 0.056 | [13] -0.008 | saracatinib 0.017 | sotrastaurin -0.091

ZW10 (UniProt O43264)
inactive: ibrutinib 0.017 | [1] -0.01 | ralimetinib -0.009 | [2] -0.033 | [3] -0.021 | [4] -0.009 | [5] 0 | [6] -0.006 | [7] 0.044 | [8] 0.004 | vemurafenib 0.027 | [9] 0.017 | barasertib 0.029 | [10] -0.019 | volasertib -0.06 | [11] 0.031 | [12] -0.04 | [13] -0.078 | saracatinib 0.034 | sotrastaurin 0.021
